Assay results reported in PMC11136664.
Results are given in words; binding and its absence hold for the method and conditions named. For part of these data: Binding calls can cover weak binding; strength is not graded here. For part of these data: Sequences can lack the tags named with a protein. For part of these data: Binding seen in cells or lysates may run through a third protein.

Chains of the proteins cited; added tags and fusions are not shown.
UniProt Q9LNJ5: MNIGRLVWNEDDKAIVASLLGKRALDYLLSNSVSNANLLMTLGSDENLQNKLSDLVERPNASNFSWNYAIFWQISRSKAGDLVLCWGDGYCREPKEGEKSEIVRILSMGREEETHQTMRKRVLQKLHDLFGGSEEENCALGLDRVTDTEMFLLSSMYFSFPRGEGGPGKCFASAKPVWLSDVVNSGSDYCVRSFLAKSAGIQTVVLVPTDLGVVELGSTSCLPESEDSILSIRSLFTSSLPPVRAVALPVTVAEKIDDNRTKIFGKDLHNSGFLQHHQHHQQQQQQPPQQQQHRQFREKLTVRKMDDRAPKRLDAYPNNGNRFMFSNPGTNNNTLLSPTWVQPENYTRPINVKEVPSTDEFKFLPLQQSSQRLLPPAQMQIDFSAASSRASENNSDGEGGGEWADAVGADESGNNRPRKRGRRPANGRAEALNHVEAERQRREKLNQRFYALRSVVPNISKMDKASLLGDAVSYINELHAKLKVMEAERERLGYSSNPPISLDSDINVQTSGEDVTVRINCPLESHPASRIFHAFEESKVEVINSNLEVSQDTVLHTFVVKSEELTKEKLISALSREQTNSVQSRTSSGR

Key:
[1] = molecular target: T1, mCherry-tagged TPL expressed in Nicotiana benthamiana (A. thaliana) (UniProt Q94AI7); assay: FRET or BRET; FRET–FLIM in nuclei of N. benthamiana epidermal cells; leaves kept at 20 °C; GFP–TWA1 donor, mCherry fusion acceptor
T1 sequence: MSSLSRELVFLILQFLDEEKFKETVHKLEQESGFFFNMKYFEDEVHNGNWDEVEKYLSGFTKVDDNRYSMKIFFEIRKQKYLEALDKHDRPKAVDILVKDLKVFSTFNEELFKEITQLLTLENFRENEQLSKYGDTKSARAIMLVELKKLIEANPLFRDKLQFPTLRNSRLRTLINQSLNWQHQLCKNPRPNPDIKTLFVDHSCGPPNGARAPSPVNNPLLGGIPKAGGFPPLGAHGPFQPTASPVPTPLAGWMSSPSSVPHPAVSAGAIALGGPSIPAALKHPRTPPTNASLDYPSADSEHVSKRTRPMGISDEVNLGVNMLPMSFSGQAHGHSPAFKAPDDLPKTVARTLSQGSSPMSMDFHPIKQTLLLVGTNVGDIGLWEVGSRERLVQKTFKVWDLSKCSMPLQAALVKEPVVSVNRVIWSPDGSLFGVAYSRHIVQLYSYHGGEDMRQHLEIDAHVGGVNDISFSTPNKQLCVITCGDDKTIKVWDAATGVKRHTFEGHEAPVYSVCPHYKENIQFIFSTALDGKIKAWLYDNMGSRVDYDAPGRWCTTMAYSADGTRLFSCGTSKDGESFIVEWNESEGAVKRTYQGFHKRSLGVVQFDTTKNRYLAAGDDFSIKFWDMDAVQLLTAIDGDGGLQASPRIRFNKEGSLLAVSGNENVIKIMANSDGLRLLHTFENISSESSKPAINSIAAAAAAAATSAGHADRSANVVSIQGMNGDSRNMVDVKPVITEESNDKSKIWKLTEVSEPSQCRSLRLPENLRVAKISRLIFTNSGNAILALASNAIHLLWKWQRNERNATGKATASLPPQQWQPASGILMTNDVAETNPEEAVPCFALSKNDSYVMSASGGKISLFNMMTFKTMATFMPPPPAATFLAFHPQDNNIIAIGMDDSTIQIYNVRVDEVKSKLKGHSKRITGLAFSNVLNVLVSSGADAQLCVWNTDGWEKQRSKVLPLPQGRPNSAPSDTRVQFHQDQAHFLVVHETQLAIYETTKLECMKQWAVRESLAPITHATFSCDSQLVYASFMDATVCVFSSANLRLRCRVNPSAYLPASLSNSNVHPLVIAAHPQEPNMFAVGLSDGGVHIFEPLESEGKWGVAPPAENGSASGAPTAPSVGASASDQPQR

[2] = molecular target: T1, mCherry-tagged TPL expressed in Nicotiana benthamiana (A. thaliana); assay: FRET or BRET; FRET–FLIM in nuclei of N. benthamiana epidermal cells; leaves 2 days at 20 °C, then exposed to 37 °C for 2 h; GFP–TWA1 donor, mCherry fusion acceptor
[3] = molecular target: JASMONATE-ASSOCIATED MYC-LIKE 2 (JAM2), GAL4-DNA binding domain fusion (A. thaliana) (UniProt Q9LNJ5); assay: two-hybrid; growth assay in liquid culture for histidine autotrophy (-L,-W,-H), JAM2 fused to Gal4-BD, partners fused to Gal4-AD; growth rate µ over the first 24 h; at 20 °C
[4] = molecular target: JASMONATE-ASSOCIATED MYC-LIKE 2 (JAM2), GAL4-DNA binding domain fusion (A. thaliana) (UniProt Q9LNJ5); assay: two-hybrid; growth assay in liquid culture for histidine autotrophy (-L,-W,-H), JAM2 fused to Gal4-BD, partners fused to Gal4-AD; growth rate µ over the first 24 h; at 25 °C and above (30 °C)
[5] = molecular target: JASMONATE-ASSOCIATED MYC-LIKE 2 (JAM2), GAL4-DNA binding domain fusion (A. thaliana) (UniProt Q9LNJ5); assay: two-hybrid; TWA1 fused to GAL4-AD against GAL4-BD fusions; serial tenfold culture dilutions on medium without leucine and tryptophan, with or without histidine, at 30 °C; JAM2 first found in a screen of indexed open-reading-frame libraries
[6] = molecular target: T2, TOPLESS (TPL), GAL4-DNA binding domain fusion (A. thaliana) (UniProt Q94AI7); assay: as above
T2 sequence: T1 sequence

| Substance | binding [1] | binding [2] | binding [3] | binding [4] | binding [5] | binding [6] |
| --- | --- | --- | --- | --- | --- | --- |
| GFP–TWA1 expressed in Nicotiana benthamiana (A. thaliana) | no binding (only at 20 °C) | binds | – | – | – | – |
| THERMO-WITH ABA-RESPONSE 1 (TWA1), GAL4-activation domain fusion (from UniProt F4K402) | – | – | no binding (only at 20 °C) | binds | binds | binds |
